Some of the results follow. Most entries show no effect beyond the scatter of the controls.

Chains of the proteins cited; added tags and fusions are not shown. Lines headed by an entry give the natural chain unless they say otherwise; changes in a name come on top.
UniProt Q8BK30: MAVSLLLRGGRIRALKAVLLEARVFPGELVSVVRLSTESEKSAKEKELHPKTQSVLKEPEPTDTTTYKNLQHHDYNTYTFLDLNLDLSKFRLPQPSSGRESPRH
UniProt Q8BVF2: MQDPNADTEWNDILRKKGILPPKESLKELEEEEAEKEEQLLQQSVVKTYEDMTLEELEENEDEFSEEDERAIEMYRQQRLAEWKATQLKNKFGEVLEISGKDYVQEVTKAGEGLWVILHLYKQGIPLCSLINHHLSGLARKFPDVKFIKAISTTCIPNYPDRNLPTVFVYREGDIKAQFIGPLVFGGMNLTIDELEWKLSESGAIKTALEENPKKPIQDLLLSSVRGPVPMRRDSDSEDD
UniProt Q8BJS4: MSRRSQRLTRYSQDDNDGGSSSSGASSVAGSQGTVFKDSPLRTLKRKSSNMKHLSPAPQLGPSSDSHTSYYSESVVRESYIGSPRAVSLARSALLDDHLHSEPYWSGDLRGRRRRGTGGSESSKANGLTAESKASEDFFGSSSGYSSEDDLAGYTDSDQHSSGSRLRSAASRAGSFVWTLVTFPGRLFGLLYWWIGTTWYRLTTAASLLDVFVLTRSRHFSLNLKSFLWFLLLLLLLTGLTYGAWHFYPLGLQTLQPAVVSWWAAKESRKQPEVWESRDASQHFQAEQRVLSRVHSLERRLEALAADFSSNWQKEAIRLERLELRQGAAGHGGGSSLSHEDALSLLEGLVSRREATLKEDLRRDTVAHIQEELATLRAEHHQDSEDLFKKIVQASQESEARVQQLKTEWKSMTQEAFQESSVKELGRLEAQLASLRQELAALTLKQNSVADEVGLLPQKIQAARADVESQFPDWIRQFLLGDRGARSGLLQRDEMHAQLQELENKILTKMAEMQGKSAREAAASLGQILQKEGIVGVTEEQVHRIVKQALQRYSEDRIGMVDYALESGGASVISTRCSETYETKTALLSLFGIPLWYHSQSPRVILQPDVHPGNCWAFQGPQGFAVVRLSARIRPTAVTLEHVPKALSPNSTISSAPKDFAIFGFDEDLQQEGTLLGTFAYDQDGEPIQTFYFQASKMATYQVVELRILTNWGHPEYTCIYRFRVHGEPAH
UniProt Q8BMF4: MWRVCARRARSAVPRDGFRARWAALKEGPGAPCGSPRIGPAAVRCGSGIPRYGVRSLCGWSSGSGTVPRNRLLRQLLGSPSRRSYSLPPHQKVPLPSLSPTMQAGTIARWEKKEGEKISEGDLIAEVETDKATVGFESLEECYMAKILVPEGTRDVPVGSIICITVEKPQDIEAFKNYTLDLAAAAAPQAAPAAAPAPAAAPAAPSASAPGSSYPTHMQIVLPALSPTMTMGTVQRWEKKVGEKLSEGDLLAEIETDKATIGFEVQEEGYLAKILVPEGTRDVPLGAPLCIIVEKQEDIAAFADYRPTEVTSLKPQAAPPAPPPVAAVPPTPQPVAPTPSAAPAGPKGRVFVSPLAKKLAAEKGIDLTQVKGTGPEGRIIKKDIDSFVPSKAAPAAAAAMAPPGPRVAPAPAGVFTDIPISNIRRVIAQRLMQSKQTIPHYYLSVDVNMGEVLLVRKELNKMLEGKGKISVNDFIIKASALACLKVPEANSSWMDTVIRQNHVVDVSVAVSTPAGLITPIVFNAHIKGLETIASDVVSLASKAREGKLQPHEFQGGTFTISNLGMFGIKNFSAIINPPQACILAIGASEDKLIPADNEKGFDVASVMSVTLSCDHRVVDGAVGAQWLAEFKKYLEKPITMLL

Compound in the assay: CN[C@@H]1C[C@H]2O[C@@](C)([C@@H]1OC)n1c3ccccc3c3c4c(c5c6ccccc6n2c5c31)C(=O)NC4 [staurosporine]
The experiment in a line: log2 fold change of tryptic peptide abundance, ligand vs vehicle (limited proteolysis) (log2 ratio); higher = more trypsin-susceptible (destabilized). The following applies: ligand concentration: 20 uM; sample: mouse liver crude lysate; replicate design: treated separately.
In the case of “UniProt Q8BK30 (peptide sequence: EPEPTDTTTYK, peptide start residue: 58)”, the log2 fold change worked out at 0.216.

As to “UniProt Q8BVF2 (peptide sequence: DYVQEVTK, peptide start residue: 102)”, the log2 fold change is -0.391.

With “UniProt Q8BJS4 (peptide sequence: RLEALAADFSSNWQK, peptide start residue: 300)”, the log2 fold change was -0.279.

Turning to “UniProt Q8BMF4 (peptide sequence: ILVPEGTR, peptide start residue: 147)”, the log2 fold change is -0.364.

These data come from the supplement of paper PMC12819154, “High-throughput peptide-centric local stability assay extends protein–ligand identification to membrane proteins, tissues and bacteria” (Nature Structural & Molecular Biology, 2025).
